Paper PMC5364497
No constants are given. Whether binding was seen depends on the method and setting. In cells and extracts the contact can be indirect. Binding can be weak; no strength is given.

B1: Sept7 (endogenous) (protein, UniProt Q16181 1-437)
chain: MSVSARSAAAEERSVNSSTMVAQQKNLEGYVGFANLPNQVYRKSVKRGFEFTLMVVGESGLGKSTLINSLFLTDLYSPEYPGPSHRIKKTVQVEQSKVLIKEGGVQLLLTIVDTPGFGDAVDNSNCWQPVIDYIDSKFEDYLNAESRVNRRQMPDNRVQCCLYFIAPSGHGLKPLDIEFMKRLHEKVNIIPLIAKADTLTPEECQQFKKQIMKEIQEHKIKIYEFPETDDEEENKLVKKIKDRLPLAVVGSNTIIEVNGKRVRGRQYPWGVAEVENGEHCDFTILRNMLIRTHMQDLKDVTNNVHYENYRSRKLAAVTYNGVDNNKNKGQLTKSPLAQMEEERREHVAKMKKMEMEMEQVFEMKVKEKVQKLKDSEAELQRRHEQMKKNLEAQHKELEEKRRQFEDEKANWEAQQRILEQQNSSRTLEKNKKKGKIF
B2: Sept2 (endogenous) (protein, UniProt Q15019 1-361)
chain: MSKQQPTQFINPETPGYVGFANLPNQVHRKSVKKGFEFTLMVVGESGLGKSTLINSLFLTDLYPERVIPGAAEKIERTVQIEASTVEIEERGVKLRLTVVDTPGYGDAINCRDCFKTIISYIDEQFERYLHDESGLNRRHIIDNRVHCCFYFISPFGHGLKPLDVAFMKAIHNKVNIVPVIAKADTLTLKERERLKKRILDEIEEHNIKIYHLPDAESDEDEDFKEQTRLLKASIPFSVVGSNQLIEAKGKKVRGRLYPWGVVEVENPEHNDFLKLRTMLITHMQDLQEVTQDLHYENFRSERLKRGGRKVENEDMNKDQILLEKEAELRRMQEMIARMQAQMQMQMQGGDGDGGALGHHV
B3: Sept9_i1 (endogenous) (protein, UniProt Q9UHD8 1-586)
chain: MKKSYSGGTRTSSGRLRRLGDSSGPALKRSFEVEEVETPNSTPPRRVQTPLLRATVASSTQKFQDLGVKNSEPSARHVDSLSQRSPKASLRRVELSGPKAAEPVSRRTELSIDISSKQVENAGAIGPSRFGLKRAEVLGHKTPEPAPRRTEITIVKPQESAHRRMEPPASKVPEVPTAPATDAAPKRVEIQMPKPAEAPTAPSPAQTLENSEPAPVSQLQSRLEPKPQPPVAEATPRSQEATEAAPSCVGDMADTPRDAGLKQAPASRNEKAPVDFGYVGIDSILEQMRRKAMKQGFEFNIMVVGQSGLGKSTLINTLFKSKISRKSVQPTSEERIPKTIEIKSITHDIEEKGVRMKLTVIDTPGFGDHINNENCWQPIMKFINDQYEKYLQEEVNINRKKRIPDTRVHCCLYFIPATGHSLRPLDIEFMKRLSKVVNIVPVIAKADTLTLEERVHFKQRITADLLSNGIDVYPQKEFDEDSEDRLVNEKFREMIPFAVVGSDHEYQVNGKRILGRKTKWGTIEVENTTHCEFAYLRDLLIRTHMQNIKDITSSIHFEAYRVKRLNEGSSAMANGMEEKEPEAPEM

Biological target: paclitaxel-microtubules (human (endogenous in SKBr3))
Assay: co-sedimentation; SKBr3 cytosolic extract (0.1 M MES pH 6.9, 1 mM EGTA, 1 mM MgCl2, 0.5% NP40, 1 mM DTT) with 10 uM paclitaxel 30 min at 30 °C; 80000 g, 30 min, 30 °C through a 10% sucrose cushion; supernatant and pellet by Western blot

| Binder | binding |
| --- | --- |
| B1 | binds weakly |
| B2 | binds weakly |
| B3 | binds |
